Experimental data: PubChem BioAssay AID1671195 (Yale University, 2021)
Aim: 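Genes whose knockdown alters LDL uptake in liver cancer cells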 (primary screen). Cell system: human Huh7 hepatoma cells. Reagent: siRNA pool against human genes, 18 nM. Timing: about 2 to 2.5 days of knockdown, then 8 h LDL uptake. Challenge: DiI-labelled LDL at 30 µg/ml for 8 h, in lipoprotein-deficient serum medium. Measured: 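Per-cell DiI-LDL intensity by automated imaging; well means scaled to the plate median and given as a robust z-score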. Scale: robust z-score: higher = more LDL uptake after knockdown. Hit rule: 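Active when two or more replicates show a robust z-score above 2 or below -2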.
The whole screen tested about 22,000 reagents; below is a part drawn at random. Of all reagents, about 1,510 (6.9%) were called active. 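Active includes knockdowns raising or lowering LDL uptake; positive z-scores mean more uptake, negative mean less.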 Unmarked entries are inactive. Reagent sequences are not shown.

target gene | robust z-score, replicate 1 | robust z-score, replicate 2 | robust z-score, replicate 3
DAAM1 (dishevelled associated activator of morphogenesis 1) | 2.04 | 0.673 | 1.2
UVRAG (UV radiation resistance associated) | -2.05 (active) | -1.32 | -1.91
HLA-G (major histocompatibility complex, class I, G) | -0.314 | -0.587 | -0.406
ACTL9 (actin like 9) | 2.52 (active) | 2.06 | 2.15
ZNF219 (zinc finger protein 219) | 0.681 | 0.0396 | -0.469
TLR1 (toll like receptor 1) | -0.708 | -0.949 | -1.73
ITGA11 (integrin subunit alpha 11) | -0.619 | -1.06 | -1.61
NDUFB9 (NADH:ubiquinone oxidoreductase subunit B9) | 1.4 | 1.78 | 0.68
GPER1 (G protein-coupled estrogen receptor 1) | -1.4 | -0.984 | -0.829
GTF2E2 (general transcription factor IIE subunit 2) | 0.234 | 0.898 | 0.722
NIPAL3 (NIPA like domain containing 3) | -0.398 | -0.348 | -0.324
LINC00652 (long independently transcribed non-coding RNA 652) | 2 | 0.085 | 1.56
SYT12 (synaptotagmin 12) | 1.96 (active) | 2.41 | 2.01
YAF2 (YY1 associated factor 2) | 2.53 (active) | 1.62 | 2.57
DENND6B (DENN domain containing 6B) | 2.88 (active) | 3.17 | 3.19
CCNI (cyclin I) | -0.931 | -1.25 | -0.223
IQCB2P (IQ motif containing B2 pseudogene) | -0.789 | -0.858 | -0.733
CD52 (CD52 molecule) | -0.667 | -1.09 | 1.67
FERMT2 (FERM domain containing kindlin 2) | 3.83 (active) | 4.06 | 6.88
MMP13 (matrix metallopeptidase 13) | 1.59 (active) | 2.09 | 4.23
AMN (amnion associated transmembrane protein) | -0.987 | -1.11 | -1.29
CLPX | -0.784 | -0.522 | -0.737
BIRC8 (baculoviral IAP repeat containing 8) | 1.11 | 0.953 | 0.487
FZD8 (frizzled class receptor 8) | 0.431 | -0.204 | -0.556
GRIN2A (glutamate ionotropic receptor NMDA type subunit 2A) | 0.306 | 0.208 | -0.3
LOC440760 (retired record) | 2.96 (active) | 2.48 | 2.75
FGFRL1 (fibroblast growth factor receptor like 1) | 1.05 | 1.4 | 1.44
SBNO1 (strawberry notch homolog 1) | -0.685 | -2.02 | -0.749
GBA1 (glucosylceramidase beta 1) | 1.09 | 0.932 | 0.788
SPRED1 (sprouty related EVH1 domain containing 1) | 0.765 | 0.784 | 1.41
LOC388114 (retired record) | 0.575 | -0.0859 | 0.0364
TTC3 (tetratricopeptide repeat domain 3) | 1.02 | 1.01 | 0.668
PLGLB2 (plasminogen like B2) | 3.78 (active) | 3.09 | 2.84
NUP133 (nucleoporin 133) | -0.994 | -1.52 | -1.03
ART1 (ADP-ribosyltransferase 1) | 0.742 | -0.426 | 0.584
ZNF608 (zinc finger protein 608) | -0.832 | -0.257 | -0.454
LOC440494 (retired record) | -0.326 | 0.182 | 0.114
KLHL25 (kelch like family member 25) | -0.105 | -0.471 | 0.0785
CEP70 (centrosomal protein 70) | 0.93 | 0.727 | 0.992
LOC399737 (retired record) | 0.988 | -0.0488 | -0.345
LOC338829 (retired record) | 1.02 | 1.4 | 1.12
AWAT2 (acyl-CoA wax alcohol acyltransferase 2) | 0.419 | 0.201 | 0.117
PMS2P5 | 1.24 (active) | 2.07 | 1.97
RPL21P44 (ribosomal protein L21 pseudogene 44) | -1.44 | -1.53 | -1.87
SERPINA4 (serpin family A member 4) | 0.116 | -0.446 | 0.613
RXFP1 (relaxin family peptide receptor 1) | -1.28 | -1.63 | -0.96

Reagents listed above called active:
target gene | robust z-score, replicate 1 | robust z-score, replicate 2 | robust z-score, replicate 3
UVRAG (UV radiation resistance associated) | -2.05 (active) | -1.32 | -1.91
ACTL9 (actin like 9) | 2.52 (active) | 2.06 | 2.15
SYT12 (synaptotagmin 12) | 1.96 (active) | 2.41 | 2.01
YAF2 (YY1 associated factor 2) | 2.53 (active) | 1.62 | 2.57
DENND6B (DENN domain containing 6B) | 2.88 (active) | 3.17 | 3.19
FERMT2 (FERM domain containing kindlin 2) | 3.83 (active) | 4.06 | 6.88
MMP13 (matrix metallopeptidase 13) | 1.59 (active) | 2.09 | 4.23
LOC440760 (retired record) | 2.96 (active) | 2.48 | 2.75
PLGLB2 (plasminogen like B2) | 3.78 (active) | 3.09 | 2.84
PMS2P5 | 1.24 (active) | 2.07 | 1.97
